We go through 37 molecules from PubChem BioAssay AID2685 (National Center for Advancing Translational Sciences (NCATS), 2010).

This test is described as follows: qHTS Assay for Lipid Storage Modulators in Drosophila S3 Cells.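 As to cell number change: cells counted by Cell Tracker Red CMTPX staining in the red channel.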 Particulars: BODIPY lipid droplet fluorescence, 18-24 h; for cell number change: measured here: cell count max response, cells fed with added oleic acid. The gist of the method: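 Laser-scanning cytometry quantifies lipid droplet accumulation (500–530 nm total intensity; droplet/cell object ratio) in oleic acid-fed (400 uM added) Drosophila S3 cells treated with a concentration series. 20 uM Triacsin C defined 100% inhibition.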

Setting [1] is: measured here: cell number channel AC50, cells fed with added oleic acid.
Where [2] appears, read: measured here: lipid fluorescence (Fed channel) AC50, cells fed with added oleic acid.

The list shows a part of the results. The main result of the screen is listed elsewhere. These columns were measured beside it and carry no call. Compounds called inactive in the main read-out are mostly missing here. Words in brackets tell the shape of the fitted curve; partial curves, single points and poor fits give uncertain potencies.

Take `O=C(Cn1c(-c2cncs2)nc2ccccc21)NCCc1ccccc1`: the cell number change is -48.6%. The AC50 under setting [1] is 20.6 µM [falling, single point]. For the same molecule, the AC50 under setting [2] is 29.1 µM [falling, single point].
As to `O=C(O)c1cccc(-c2nc3ccccc3[nH]2)c1`, the cell number change turned out to be 66.6%. Under setting [1], the AC50 is 14.6 µM [rising, partial curve]. For the same molecule, the concentration at half-maximal activity (AC50) under setting [2] is 0.82 µM [rising, full curve, poor fit].
For `N#C/C(=C/c1ccc(Br)s1)C(=O)NCCc1c[nH]c2ccccc12`, the cell number change worked out at 36.3%. Also, the AC50 under setting [1] is 8.2 µM [rising, partial curve]. Moreover, under setting [2], the half-maximal activity concentration (AC50) was 23.1 µM [rising, single point].
Regarding `Clc1ccc(C2NCCc3sccc32)cc1` (stereo unspecified), the cell number change is -6.99%. Under setting [1], the half-maximal activity concentration (AC50) was 0.00461 µM [falling, full curve, poor fit].
`O=C(Cc1ccccc1)N1CCNCC1`: the cell number change was found to be 24.7%. Under setting [2], the AC50 is 0.00517 µM [falling, full curve, poor fit].
Turning to `CC(C)(C)Cc1nc2ccccc2n1CCc1ccccc1`, the cell number change is -66.8%. Moreover, the concentration at half-maximal activity (AC50) under setting [1] is 0.58 µM [rising, full curve]. The AC50 under setting [2] is 0.326 µM [rising, partial curve, poor fit].
Regarding `Fc1ccccc1COc1ccc(Br)cc1CNCc1ccncc1`, the cell number change was -15.4%. In addition, the AC50 under setting [2] is 6.51 µM [rising, single point].
Regarding `CCCCS(=O)c1c(O)c2ccccc2[nH]c1=O` (stereo unspecified), the cell number change stood at 19%.
On to `CN1C(=O)CC(Nc2cccc3cccc(N)c23)C1=O` (stereo unspecified), for which the cell number change is -31.7%. Moreover, the concentration at half-maximal activity (AC50) under setting [1] was 32.6 µM [falling, single point]. Further, the concentration at half-maximal activity (AC50) under setting [2] was 29.1 µM [falling, single point].
As to `Cc1cc(NC(=O)COc2coc(CN3CCN(c4ccccc4F)CC3)cc2=O)no1`, the cell number change is -11.5%. The concentration at half-maximal activity (AC50) under setting [2] was 0.0058 µM [rising, full curve, poor fit].
Regarding `O=C(CN1CCOCC1)NCCNC(=O)CN1CCOCC1`, the AC50 under setting [1] was 0.00517 µM [falling, full curve, poor fit].
Regarding `CCn1c(-c2ccc[nH]c2=O)nc2ccccc21`, the cell number change is -4.5%. In addition, under setting [2], the AC50 is 29.1 µM [falling, single point].
For `CCOc1ccc(C2c3c(oc4cc(C)c(C)cc4c3=O)C(=O)N2CCCN(C)C)cc1OC` (stereo unspecified), the cell number change was -10.7%. Further, the AC50 under setting [2] is 0.00517 µM [rising, full curve, poor fit].
For the molecule `CN(C)C(CNC(=O)c1cc(S(=O)(=O)N(C)c2ccccc2)ccc1Cl)c1cccs1` (stereo unspecified), the cell number change came out at 57.7%. The concentration at half-maximal activity (AC50) under setting [1] is 14.6 µM [rising, partial curve].
For the molecule `O=C(NCCc1ccccc1)c1ccc2nc3cc(Cl)ccc3c(=O)n2c1`, the cell number change stood at 20.4%. Also, the half-maximal activity concentration (AC50) under setting [2] was 13 µM [falling, partial curve].
In the case of `Cc1cc(C)n(-c2nc(NC(C)C)nc(NC(C)C)n2)n1`, the cell number change was -22.6%.
Take `FC(F)(F)c1ccc(CN2CCN(Cc3ccco3)CC2)cc1`: the cell number change was -3.44%. Besides, the AC50 under setting [2] was 29.1 µM [rising, single point].
`CCc1ccc(NS(=O)(=O)c2ccc3c(c2)CCN3C(=O)CCC(=O)O)cc1`: the cell number change is 4.5%. The concentration at half-maximal activity (AC50) under setting [1] is 0.58 µM [rising, single point].
As for `CCC(C)(C)NC(=O)CCCSc1nc2ccccc2[nH]1`, the cell number change was -22.5%. Also, the half-maximal activity concentration (AC50) under setting [2] is 1.84 µM [falling, partial curve].
With `COCCn1cc(C(=O)NCCCN2CCC(C)CC2)c2c3ccccc3n(C)c2c1=O`, the concentration at half-maximal activity (AC50) under setting [2] is 0.206 µM [falling, full curve, poor fit].
`CNS(=O)(=O)c1cccc(C(=O)OCC(=O)NCc2ccccc2)c1`: the cell number change was -92.2%. Further, the half-maximal activity concentration (AC50) under setting [1] is 29.1 µM [falling, single point].
Regarding `COc1ccc(/C(O)=C2/C(=O)C(=O)N(CC3CCCO3)C2c2ccc(O)c(OC)c2)cc1` (stereo unspecified), the half-maximal activity concentration (AC50) under setting [1] is 0.461 µM [rising, single point].
In the case of `N#Cc1ccc(C(=O)NCCCSc2ccccc2)cc1`, the cell number change turned out to be 3.95%.
`COc1ccc(OC)c(N/C=C/C(=C(C#N)C#N)N(C)C)c1`: the cell number change came to 19.2%. Besides, under setting [2], the AC50 is 2.06 µM [rising, full curve].
`COc1ccc(N(Cc2cc3cc(OC)ccc3[nH]c2=O)S(C)(=O)=O)cc1`: the cell number change was 1.04%.
For the molecule `CCOC(=O)c1[nH]c2ccc(F)cc2c1N=C(C)N(CC)CC`, the cell number change is -11.4%. Moreover, under setting [2], the AC50 was 29.1 µM [rising, single point].
As for `Cc1cccc(C)c1OCc1nnc2c3cnn(C)c3ncn12`, the cell number change is 234%. Moreover, the AC50 under setting [1] is 3.66 µM [rising, full curve]. The half-maximal activity concentration (AC50) under setting [2] is 5.17 µM [rising, partial curve].
As for `CCOc1cc(/C=N/NC(=O)c2cccnc2)ccc1OCc1ccc(C(=O)OC)o1`, the cell number change stood at 13.4%.
`Cc1cc(C)c2c(=O)[nH]c(SCC(=O)Nc3cccc(S(=O)(=O)N(C)C)c3)nc2n1`: the cell number change was 12%. The AC50 under setting [1] is 2.91 µM [rising, single point]. For the same molecule, the concentration at half-maximal activity (AC50) under setting [2] is 6.51 µM [falling, full curve, poor fit].
For the molecule `CCCCC(=O)Nc1ccc(NC(=S)NC(=O)CCCCl)cc1OC`, the cell number change was found to be 20.7%. Under setting [2], the AC50 is 0.411 µM [rising, single point].
For the molecule `Cc1nc2c(=O)n(C)c(=O)n(C)c2nc1Cl`, the cell number change was -70.1%. For the same molecule, the AC50 under setting [1] is 25.9 µM [falling, partial curve]. In addition, the AC50 under setting [2] is 25.9 µM [falling, partial curve].
For the molecule `COc1cc(OC)cc(C(=O)Nc2ccc3c(c2)CCCN3C(=O)c2cccs2)c1`, the cell number change was -32.3%. Besides, under setting [1], the AC50 is 2.59 µM [falling, full curve]. The half-maximal activity concentration (AC50) under setting [2] is 16.4 µM [falling, single point].
In the case of `CCCSc1nc2sc3c(c2c(=O)[nH]1)CC(C)CC3` (stereo unspecified), the cell number change is -7.94%. Under setting [2], the concentration at half-maximal activity (AC50) was 0.355 µM [rising, full curve, poor fit].
As to `O=C(CN(Cc1ccc(F)cc1)C(=O)CNS(=O)(=O)c1ccc(F)cc1)NCC1CCCO1` (stereo unspecified), the cell number change was found to be 42.3%. Besides, under setting [1], the AC50 was 16.4 µM [rising, single point].
`O=C1c2ccccc2NC2(CCCC2)N1N=C1CCCC1`: the cell number change is -10.8%. Also, under setting [1], the concentration at half-maximal activity (AC50) is 0.13 µM [falling, full curve, poor fit]. The AC50 under setting [2] was 20.6 µM [falling, partial curve].
As for `O=C(COC(=O)CCN1C(=O)c2cccc([N+](=O)[O-])c2C1=O)NCc1ccccc1`, the cell number change was -23.2%. Besides, the AC50 under setting [1] was 0.82 µM [falling, full curve, poor fit]. For the same molecule, the AC50 under setting [2] was 0.82 µM [falling, full curve, poor fit].
Turning to `COc1ccc(C(C)=O)cc1CSc1nnc(Nc2ccccc2)s1`, the AC50 under setting [2] is 3.26 µM [falling, partial curve].
